Measured values: PubChem BioAssay AID248 (DTP/NCI, 2004)
The list is a part of this screen's results and no random one: it gathers tests that were run many times, whatever their T/C, doses with no T/C, and many T/C values between a quarter and a half above the control. Further doses and runs are listed elsewhere. T/C gives the treated animals as a percentage of the vehicle group. Some doses have a count of surviving animals in place of a T/C: the source files T/C as zero there, which appears to mark a toxic dose or a test without result, not a measured value. Some doses without a T/C left all or most animals alive at the check, yet need not have been tolerated: survival well below the control is almost never listed, so the zero probably covers shortened survival too. Counts of survivors are from the toxicity check (mostly the fifth day) where no day follows; animals may have died later. Schedule codes are those of the source, read here as Q, the interval in days (D) or hours (H), X, the number of doses. Some schedules carry Z or #; the key to these is not given. For survival time, the PubChem record calls one and a half times the control and up active, and a quarter to a half above the control has no call in these data; cut-offs in other NCI protocols can differ.

Tested on: L1210 leukemia ip in BDF1 mice, survival T/C
Experiment: NCI In Vivo Anticancer Drug Screen. Data for tumor model L1210 Leukemia (intraperitoneal) in B6D2F1 (BDF1) mice
Details: T/C endpoint: mean survival time, higher T/C = longer survival
[1] = dose: 200.0 mg/kg/injection, schedule: Q04DX002 (ip), vehicle: Klucel (hydroxypropylcellulose) (HPC)
[2] = dose: 400.0 mg/kg/injection, schedule: Q04DX002 (ip), vehicle: Klucel (hydroxypropylcellulose) (HPC)
[3] = dose: 200.0 mg/kg/injection, schedule: Q01DX009 (ip), vehicle: Klucel (hydroxypropylcellulose) (HPC)
[4] = dose: 400.0 mg/kg/injection, schedule: Q01DX009 (ip), vehicle: Klucel (hydroxypropylcellulose) (HPC)
[5] = dose: 400.0 mg/kg/injection, schedule: Q04DX003 (ip), vehicle: Klucel (hydroxypropylcellulose) (HPC)

O=C(NCCCCCCCCCCCCNC(=O)Nc1ccc(C2=NCC(O)CN2)cc1)Nc1ccc(C2=NCC(O)CN2)cc1 (centres undefined)
T/C (dose: 125.0 mg/kg/injection, schedule: Q01DX Z (ip), vehicle: carboxymethylcellulose (CMC)): 133 % of control
survivor count (dose: 500.0 mg/kg/injection, schedule: Q01DX Z (ip), vehicle: carboxymethylcellulose (CMC)): 0 of 6

CCCCCCCCCCCC(=O)OCC1OC2C(Oc3nc(=N)ccn32)C1OC(=O)CCCCCCCCCCC (centres undefined)
T/C (dose: 6.25 mg/kg/injection, schedule: Q01DX009 (ip), vehicle: water): 139 % of control
survivor count (dose: 100.0 mg/kg/injection, schedule: Q01DX009 (ip), vehicle: water): 6 of 6

ClCC1=NCCCN1
survivor count [1]: 2 of 3
survivor count [2]: 0 of 3

O=C(NCCN1CCCCC1)C(O)(c1ccccc1)C1CCCCC1 (centres undefined)
survivor count (dose: 300.0 mg/kg/injection, schedule: Q01DX001 (ip), vehicle: other): 0 of 6

Nc1nc(N)c(CCCOc2ccc(NC(=O)CBr)cc2)c(N)n1
survivor count (dose: 100.0 mg/kg/injection, schedule: Q01DX001 (ip), vehicle: Klucel (hydroxypropylcellulose) (HPC)): 1 of 6
survivor count (dose: 200.0 mg/kg/injection, schedule: Q01DX001 (ip), vehicle: Klucel (hydroxypropylcellulose) (HPC)): 0 of 6
survivor count (dose: 400.0 mg/kg/injection, schedule: Q01DX001 (ip), vehicle: Klucel (hydroxypropylcellulose) (HPC)): 0 of 6

C=C1CC2(OC1=O)C(=O)N(C)c1ccccc12 (centres undefined)
survivor count (dose: 100.0 mg/kg/injection, schedule: Q04DX002 (ip), vehicle: gum acacia): 1 of 3
survivor count (dose: 200.0 mg/kg/injection, schedule: Q04DX002 (ip), vehicle: gum acacia): 0 of 3
survivor count (dose: 400.0 mg/kg/injection, schedule: Q04DX002 (ip), vehicle: gum acacia): 0 of 3

O=CN(N=O)c1ccccc1
survivor count (dose: 75.0 mg/kg/injection, schedule: Q01DX001 (ip), vehicle: other): 0 of 6
survivor count (dose: 150.0 mg/kg/injection, schedule: Q01DX001 (ip), vehicle: other): 3 of 6

O=C1N(Br)C(=O)C(c2ccc(Cl)cc2)(c2ccc(Cl)cc2)N1Br
survivor count (dose: 480.0 mg/kg/injection, schedule: Q01DX015 (ip), vehicle: carboxymethylcellulose (CMC)): 4 of 6

C=CCOCC(O)CN(CCC(C)C)CCC(C)C (centres undefined)
survivor count [3]: 0 of 6
survivor count [4]: 0 of 6
survivor count [5]: 1 of 6

O=C(O)c1cccc(F)c1C(=O)c1ccc2ccccc2c1
survivor count [5]: 2 of 6

CCn1cc(C(=O)O)c(=O)c2cc(OC)c3ccccc3c21
survivor count [1]: 2 of 3

COC(=O)C1C2CC3c4[nH]c5cc(OC)ccc5c4CCN3CC2CC(OC)C1OC (centres undefined)
survivor count (dose: 12.5 mg/kg/injection, schedule: Q03HX024 (ip), vehicle: saline): 2 of 6
T/C (dose: 25.0 mg/kg/injection, schedule: Q04DX003 (ip), vehicle: saline): 142 % of control
survivor count (dose: 64.0 mg/kg/injection, schedule: Q01DX009 (ip), vehicle: saline): 0 of 6
survivor count (dose: 100.0 mg/kg/injection, schedule: Q04DX003 (ip), vehicle: saline): 2 of 4
survivor count (dose: 128.0 mg/kg/injection, schedule: Q01DX009 (ip), vehicle: saline): 0 of 6
survivor count (dose: 150.0 mg/kg/injection, schedule: Q01DX001 (ip), vehicle: saline): 2 of 6
survivor count (dose: 200.0 mg/kg/injection, schedule: Q04DX003 (ip), vehicle: saline): 0 of 4
survivor count (dose: 256.0 mg/kg/injection, schedule: Q01DX009 (ip), vehicle: saline): 0 of 6
survivor count (dose: 300.0 mg/kg/injection, schedule: Q01DX001 (ip), vehicle: saline): 0 of 6
survivor count (dose: 400.0 mg/kg/injection, schedule: Q04DX003 (ip), vehicle: saline): 0 of 4

CN(C)/N=C1\C(=O)Nc2ccccc21
survivor count [3]: 0 of 6
survivor count [4]: 0 of 6

N#Cc1nc(N)c(NC2(O)C(=O)Nc3ccccc32)nc1C#N (centres undefined)
survivor count [2]: 0 of 3
